Results published in PubChem BioAssay AID288 (DTP/NCI, 2004).
The list shows only some results of the screen, not a fair sample: it covers a few groups of compounds. Other doses and runs of a compound may be missing. T/C is the treated group as % of the vehicle group. Schedule codes are those of the source, taken here to give the interval after Q, in days (D) or hours (H), and the number of doses after X. Some T/C values are marked as having no survivor count here; that says nothing about deaths at the dose. Some doses were run more than once; the values are given in rising order. Where survival is the endpoint, this PubChem deposit counts one and a half times the control or more as active, and values a quarter to a half above the control carry no call in these data; other NCI protocols may use other cut-offs.

Tested on: BDF1 mice, M5076 sarcoma s.c., survival/tumor T/C
Test: NCI In Vivo Anticancer Drug Screen. Data for tumor model Sarcoma M5076 (subcutaneous) in B6D2F1 (BDF1) mice
Conditions: vehicle: saline + alcohol
Procedure: The antitumor activity of compounds was measured in mice bearing transplantable tumors. Survival or tumor size were measured and the results are expressed as the measurement made in the treated group (T) divided by the measurement made in the vehicle treated control group (C). The tumor model used in this assay is Sarcoma M5076 (subcutaneous) in B6D2F1 (BDF1) mice

[1] = T/C endpoint: mean tumor weight, dose: 1.25 mg/kg/injection, schedule: Q02DX011 (ip), evaluated on day 22, higher T/C = larger tumour
[2] = T/C endpoint: median tumor weight (est.), dose: 1.25 mg/kg/injection, schedule: Q02DX011 (ip), evaluated on day 22, higher T/C = larger tumour

Row | Compound | T/C [1] | T/C (T/C endpoint: mean tumor weight, dose: 1.3 mg/kg/injection, schedule: Q02DX011 (ip), evaluated on day 22, higher T/C = larger tumour) | T/C (T/C endpoint: median survival time, dose: 0.78 mg/kg/injection, schedule: Q04DX004 (ip), higher T/C = longer survival) | T/C (T/C endpoint: median survival time, dose: 0.78 mg/kg/injection, schedule: Q04DX004 (iv), higher T/C = longer survival) | T/C (T/C endpoint: median survival time, dose: 1.3 mg/kg/injection, schedule: Q04DX004 (ip), higher T/C = longer survival) | T/C (T/C endpoint: median survival time, dose: 1.3 mg/kg/injection, schedule: Q04DX004 (iv), higher T/C = longer survival) | T/C (T/C endpoint: median survival time, dose: 2.16 mg/kg/injection, schedule: Q04DX004 (ip), higher T/C = longer survival) | T/C (T/C endpoint: median survival time, dose: 2.16 mg/kg/injection, schedule: Q04DX004 (iv), higher T/C = longer survival) | T/C (T/C endpoint: median survival time, dose: 3.6 mg/kg/injection, schedule: Q04DX004 (ip), higher T/C = longer survival) | T/C (T/C endpoint: median survival time, dose: 3.6 mg/kg/injection, schedule: Q04DX004 (iv), higher T/C = longer survival) | T/C (T/C endpoint: median survival time, dose: 6.0 mg/kg/injection, schedule: Q04DX004 (ip), higher T/C = longer survival) | T/C (T/C endpoint: median survival time, dose: 6.0 mg/kg/injection, schedule: Q04DX004 (iv), higher T/C = longer survival) | T/C [2] | T/C (T/C endpoint: median tumor weight (est.), dose: 1.3 mg/kg/injection, schedule: Q02DX011 (ip), evaluated on day 22, higher T/C = larger tumour) | T/C (T/C endpoint: mean tumor weight, dose: 0.63 mg/kg/injection, schedule: Q02DX011 (ip), evaluated on day 22, higher T/C = larger tumour) | T/C (T/C endpoint: median tumor weight (est.), dose: 0.63 mg/kg/injection, schedule: Q02DX011 (ip), evaluated on day 22, higher T/C = larger tumour)
1 | CC(=O)OCC12CCC(C)=CC1OC1C(O)C(OC(C)=O)C2(C)C12CO2 (stereo not drawn) | 48 % of control [survivor count not shown] | 58 % of control [survivor count not shown] | 97 % of control [survivor count not shown] | 141 % of control [survivor count not shown] | 100 % of control [survivor count not shown] | 96 % of control [survivor count not shown] | 106 % of control [survivor count not shown] | 109 % of control [survivor count not shown] | 120 % of control [survivor count not shown] | 125 % of control [survivor count not shown] | 138 % of control [survivor count not shown] | 134 % of control [survivor count not shown] | 70 % of control [survivor count not shown] | 52 % of control [survivor count not shown] | – | –
2 | CC(=O)OC[C@]12C[C@H](OC(=O)CC(C)C)C(C)=C[C@H]1OC1[C@H](O)[C@@H](OC(C)=O)[C@@]2(C)[C@@]12CO2 | 17 [survivor count not shown] and 35 % of control [survivor count not shown] | – | – | – | – | – | – | – | – | – | – | – | 11 [survivor count not shown] and 14 % of control [survivor count not shown] | – | 86 [survivor count not shown] and 141 % of control [survivor count not shown] | 84 [survivor count not shown] and 87 % of control [survivor count not shown]
